Test results reported in doi:10.1101/686014.
Results are given in words; binding and its absence hold for the method and conditions named. Binding seen in cells or lysates may run through a third protein. Some entries that bind do so weakly or less than the wild type.

Target: T1, Daughterless (Drosophila (endogenous in third instar larval ventral nerve cord)) (UniProt P11420)
T1 sequence: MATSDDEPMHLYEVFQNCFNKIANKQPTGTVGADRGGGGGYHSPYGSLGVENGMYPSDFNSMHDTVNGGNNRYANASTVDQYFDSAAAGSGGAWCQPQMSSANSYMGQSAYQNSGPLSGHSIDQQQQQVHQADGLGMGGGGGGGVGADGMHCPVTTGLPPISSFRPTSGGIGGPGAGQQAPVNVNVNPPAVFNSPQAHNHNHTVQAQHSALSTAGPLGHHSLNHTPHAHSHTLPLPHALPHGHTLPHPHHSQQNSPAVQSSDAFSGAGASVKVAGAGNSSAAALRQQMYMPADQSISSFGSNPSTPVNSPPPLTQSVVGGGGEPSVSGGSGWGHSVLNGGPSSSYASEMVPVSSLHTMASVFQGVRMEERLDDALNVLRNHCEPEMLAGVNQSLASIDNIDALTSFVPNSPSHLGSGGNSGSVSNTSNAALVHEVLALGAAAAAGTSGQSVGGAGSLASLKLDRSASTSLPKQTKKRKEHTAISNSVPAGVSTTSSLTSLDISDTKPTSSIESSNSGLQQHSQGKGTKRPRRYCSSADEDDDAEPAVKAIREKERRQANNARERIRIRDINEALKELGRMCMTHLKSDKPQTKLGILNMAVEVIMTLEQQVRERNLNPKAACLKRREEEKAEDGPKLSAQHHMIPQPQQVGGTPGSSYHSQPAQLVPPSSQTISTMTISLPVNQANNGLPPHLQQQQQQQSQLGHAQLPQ
Experiment: proximity ligation

binding: binds
B1: Extramacrochaete (protein, UniProt P18491 1-199)
chain: MKSLTAVCQTGASGMPALNASGRIQRHPTHRGDGENAEMKMYLSKLKDLVPFMPKNRKLTKLEIIQHVIDYICDLQTELETHPEMGNFDAAAALTAVNGLHEDEDSDMEDADAEAEAEVDPDILAQRLNAEQPAKVSSPAARLPLTDRQTPNTLVAPAHPQQHQQQQQLQLQQQQLQSQQQLSNSLATPQNAEKDSRQS
